According to US20230348858:

Experiments:
[1] = target: Brg1 helicase domain D1D2 (Mus musculus) (UniProt Q3TKT4); assay: activity assay; details: m6A at A8; m6A demethylation of generic probe; purified recombinant protein; protein details: MBP fusion
[2] = target: Brg1 full-length (Mus musculus) (UniProt Q3TKT4); assay: activity assay; details: m6A at A8, purified recombinant protein
[3] = target: Brg1 D1 subdomain (Mus musculus) (UniProt Q3TKT4); assay: activity assay; details: m6A at A8; no demethylation; binding not measured; purified recombinant protein; protein details: MBP fusion
[4] = target: Brg1 D1D2 H1181A/D1183A H1181A,D1183A (FIG. 18 legend: H1173A/D1175A) (Mus musculus) (UniProt A7Z019); assay: activity assay; details: m6A at A8; demethylation disabled; binding not measured; purified recombinant protein; protein details: MBP fusion
[5] = target: T1, Snf2 helicase domain (Saccharomyces cerevisiae) (UniProt P22082); assay: activity assay; details: m6A at A8; m6A demethylation of m6A-Bmp10 probe; purified recombinant protein; protein details: MBP fusion
T1 sequence (looked up): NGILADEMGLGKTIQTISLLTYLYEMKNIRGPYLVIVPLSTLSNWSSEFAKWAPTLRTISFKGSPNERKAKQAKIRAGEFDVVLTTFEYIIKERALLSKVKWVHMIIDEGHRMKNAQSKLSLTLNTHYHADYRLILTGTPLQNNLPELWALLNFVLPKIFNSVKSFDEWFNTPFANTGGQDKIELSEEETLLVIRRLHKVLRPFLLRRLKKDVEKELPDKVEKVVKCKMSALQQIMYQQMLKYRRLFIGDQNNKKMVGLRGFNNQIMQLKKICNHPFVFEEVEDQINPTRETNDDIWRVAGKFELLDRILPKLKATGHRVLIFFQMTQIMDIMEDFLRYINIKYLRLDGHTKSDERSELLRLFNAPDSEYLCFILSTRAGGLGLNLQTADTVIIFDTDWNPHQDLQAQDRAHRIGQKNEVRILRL

[6] = target: MBP (maltose binding protein) (UniProt P0AEX9); assay: activity assay; details: m6A at A8; negative control in demethylation assay; purified recombinant protein; protein details: pMAL vector control, listing gives SEQ 27
[7] = target: Brg1 D1D2 R973Q (Mus musculus) (UniProt A7Z019); assay: activity assay; details: m6A at A8; demethylation abolished; binding not measured; purified recombinant protein; protein details: MBP fusion
[8] = target: Brg1 D2 subdomain (Mus musculus) (UniProt Q3TKT4); assay: activity assay; details: m6A at A8; no demethylation; binding not measured; purified recombinant protein; protein details: MBP fusion
[9] = target: Brg1 helicase domain D1D2 (Mus musculus) (UniProt Q3TKT4); assay: EMSA; details: preferentially bound m6A probe but not the unmethylated version; purified recombinant protein; protein details: MBP fusion; label: 5'-biotin

AUUGUCAACAGCAGC [generic m6A RNA probe]
activity on this sequence [1]: active | activity on this sequence ([2]; m6A demethylation of generic probe): active

CGGUUGUACACGCUG [m6A-Bmp10 15-mer probe]
activity on this sequence [3]: not active | activity on this sequence [4]: not active | activity on this sequence [5]: active | activity on this sequence [6]: not active | activity on this sequence [7]: not active | activity on this sequence [8]: not active | activity on this sequence ([2]; m6A demethylation, dot blot): active

UCGUCAUGGCUGAACUGCGGUUGUACACGCUGGUGCAGAGAGAUCGCAU [Bmp10 RNA control probe unmethylated]
binding result [9]: no binding

For some of these results: A negative result means that nothing was seen under these conditions. For some of these results: Where a protein sequence is shown, tags need not be part of it. For some of these results: The exact form of at least one protein or probe is not confirmed.
